Data taken from publication PMC7156710.

Sequences of proteins named here, by UniProt entry; tags and fusion partners are left off. A line that says so, or that is headed by a name, gives the form on record, which may keep a tag or linker. Residues count along the entry.
UniProt P48431, 40-123: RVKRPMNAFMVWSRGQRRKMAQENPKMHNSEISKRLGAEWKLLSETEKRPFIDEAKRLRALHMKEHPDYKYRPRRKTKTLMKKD
UniProt P48431, 40-123 K80A: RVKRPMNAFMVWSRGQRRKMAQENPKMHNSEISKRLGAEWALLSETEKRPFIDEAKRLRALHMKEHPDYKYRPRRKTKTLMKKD
UniProt P48431, 40-123 F48A: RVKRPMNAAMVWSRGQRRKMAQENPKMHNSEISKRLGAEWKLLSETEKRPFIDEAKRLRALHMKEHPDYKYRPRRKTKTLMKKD
UniProt P48431, 40-123 R98A: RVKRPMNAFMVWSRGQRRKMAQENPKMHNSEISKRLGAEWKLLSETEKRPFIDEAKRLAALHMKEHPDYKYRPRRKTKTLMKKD
UniProt P48431, 40-123 K95A: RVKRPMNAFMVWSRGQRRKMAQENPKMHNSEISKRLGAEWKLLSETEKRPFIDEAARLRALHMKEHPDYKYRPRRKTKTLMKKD
UniProt P48431, 40-123 W79A: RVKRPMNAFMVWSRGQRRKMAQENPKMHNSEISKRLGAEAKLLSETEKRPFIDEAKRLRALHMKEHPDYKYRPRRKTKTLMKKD
UniProt P48431, 40-123 W51A: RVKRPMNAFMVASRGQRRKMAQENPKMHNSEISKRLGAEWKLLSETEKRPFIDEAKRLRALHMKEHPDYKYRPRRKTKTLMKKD
UniProt P48431, 40-123 N46A: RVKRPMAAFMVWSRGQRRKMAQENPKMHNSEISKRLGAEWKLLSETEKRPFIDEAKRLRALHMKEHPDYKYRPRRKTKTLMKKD
UniProt P48431, 40-123 R113A: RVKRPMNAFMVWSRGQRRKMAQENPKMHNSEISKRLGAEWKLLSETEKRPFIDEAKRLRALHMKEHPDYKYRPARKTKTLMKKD
UniProt P48431, 40-123 R56A: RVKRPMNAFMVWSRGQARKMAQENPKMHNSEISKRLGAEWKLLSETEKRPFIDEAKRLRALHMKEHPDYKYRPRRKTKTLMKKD
UniProt P48431, other isoform, or with tags, fused parts or gaps: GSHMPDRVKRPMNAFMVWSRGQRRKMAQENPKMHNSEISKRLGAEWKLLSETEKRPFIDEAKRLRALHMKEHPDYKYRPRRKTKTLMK

Columns and labels:
Sox2-HMG (Homo sapiens) [1] = biological target: Sox2-HMG (Homo sapiens) (UniProt P48431); experiment: fluorescence anisotropy; settings: 10 mM Tris-HEPES pH 7.5, 135 mM KCl, 15 mM NaCl, 1 mM DTT, 8% Ficoll, 0.05% NP-40, 0.1 mg/mL BSA; 2 nM DNA or 3 nM RNA; room temperature (stated for competition); recombinant protein; residues 40-123; protein details: N-terminal His6, thrombin cleaved; label: 3' fluorescein
[2] = biological target: Sox2-HMG (from His8-MBP fusion) (Homo sapiens) (UniProt P48431); experiment: fluorescence anisotropy; settings: 10 mM Tris-HEPES pH 7.5, 135 mM KCl, 15 mM NaCl, 1 mM DTT, 8% Ficoll, 0.05% NP-40, 0.1 mg/mL BSA; 2 nM DNA or 3 nM RNA; room temperature (stated for competition); recombinant protein; residues 40-123; protein details: His8-MBP removed with HRV-3C; label: 3'-FAM
Sox2-HMG (Homo sapiens) [3] = biological target: Sox2-HMG (Homo sapiens) (UniProt P48431); experiment: NMR HSQC; settings: 10 mM Tris-HEPES pH 7.5, 135 mM KCl, 15 mM NaCl, 1 mM DTT, 8% Ficoll, 0.05% NP-40, 0.1 mg/mL BSA; 2 nM DNA or 3 nM RNA; room temperature (stated for competition); recombinant protein; residues 40-123; protein details: N-terminal His6, thrombin cleaved; label: 3' fluorescein
[4] = biological target: Sox2-HMG K80A (Homo sapiens) (UniProt P48431); experiment: fluorescence anisotropy; settings: 10 mM Tris-HEPES pH 7.5, 135 mM KCl, 15 mM NaCl, 1 mM DTT, 8% Ficoll, 0.05% NP-40, 0.1 mg/mL BSA; 2 nM DNA or 3 nM RNA; room temperature (stated for competition); recombinant protein; residues 40-123; protein details: His6; label: 3' fluorescein
[5] = biological target: Sox2-HMG F48A (Homo sapiens) (UniProt P48431); experiment: fluorescence anisotropy; settings: 10 mM Tris-HEPES pH 7.5, 135 mM KCl, 15 mM NaCl, 1 mM DTT, 8% Ficoll, 0.05% NP-40, 0.1 mg/mL BSA; 2 nM DNA or 3 nM RNA; room temperature (stated for competition); recombinant protein; residues 40-123; protein details: His6; label: 3' fluorescein
[6] = biological target: Sox2-HMG R98A (Homo sapiens) (UniProt P48431); experiment: fluorescence anisotropy; settings: 10 mM Tris-HEPES pH 7.5, 135 mM KCl, 15 mM NaCl, 1 mM DTT, 8% Ficoll, 0.05% NP-40, 0.1 mg/mL BSA; 2 nM DNA or 3 nM RNA; room temperature (stated for competition); recombinant protein; residues 40-123; protein details: His6; label: 3' fluorescein
[7] = biological target: Sox2-HMG K95A (Homo sapiens) (UniProt P48431); experiment: fluorescence anisotropy; settings: 10 mM Tris-HEPES pH 7.5, 135 mM KCl, 15 mM NaCl, 1 mM DTT, 8% Ficoll, 0.05% NP-40, 0.1 mg/mL BSA; 2 nM DNA or 3 nM RNA; room temperature (stated for competition); recombinant protein; residues 40-123; protein details: His6; label: 3' fluorescein
[8] = biological target: Sox2-HMG W79A (Homo sapiens) (UniProt P48431); experiment: fluorescence anisotropy; settings: 10 mM Tris-HEPES pH 7.5, 135 mM KCl, 15 mM NaCl, 1 mM DTT, 8% Ficoll, 0.05% NP-40, 0.1 mg/mL BSA; 2 nM DNA or 3 nM RNA; room temperature (stated for competition); recombinant protein; residues 40-123; protein details: His6; label: 3' fluorescein
[9] = biological target: Sox2-HMG W51A (Homo sapiens) (UniProt P48431); experiment: fluorescence anisotropy; settings: 10 mM Tris-HEPES pH 7.5, 135 mM KCl, 15 mM NaCl, 1 mM DTT, 8% Ficoll, 0.05% NP-40, 0.1 mg/mL BSA; 2 nM DNA or 3 nM RNA; room temperature (stated for competition); recombinant protein; residues 40-123; protein details: His6; label: 3' fluorescein
[10] = biological target: Sox2-HMG N46A (Homo sapiens) (UniProt P48431); experiment: fluorescence anisotropy; settings: 10 mM Tris-HEPES pH 7.5, 135 mM KCl, 15 mM NaCl, 1 mM DTT, 8% Ficoll, 0.05% NP-40, 0.1 mg/mL BSA; 2 nM DNA or 3 nM RNA; room temperature (stated for competition); recombinant protein; residues 40-123; protein details: His6; label: 3' fluorescein
[11] = biological target: Sox2-HMG R113A (Homo sapiens) (UniProt P48431); experiment: fluorescence anisotropy; settings: 10 mM Tris-HEPES pH 7.5, 135 mM KCl, 15 mM NaCl, 1 mM DTT, 8% Ficoll, 0.05% NP-40, 0.1 mg/mL BSA; 2 nM DNA or 3 nM RNA; room temperature (stated for competition); recombinant protein; residues 40-123; protein details: His6; label: 3' fluorescein
[12] = biological target: Sox2-HMG R56A (Homo sapiens) (UniProt P48431); experiment: fluorescence anisotropy; settings: 10 mM Tris-HEPES pH 7.5, 135 mM KCl, 15 mM NaCl, 1 mM DTT, 8% Ficoll, 0.05% NP-40, 0.1 mg/mL BSA; 2 nM DNA or 3 nM RNA; room temperature (stated for competition); recombinant protein; residues 40-123; protein details: His6; label: 3' fluorescein
[13] = biological target: Sox2-HMG (thrombin cleaved) (Homo sapiens) (UniProt P48431); experiment: fluorescence anisotropy; settings: 10 mM Tris-HEPES pH 7.5, 8% Ficoll, 0.05% NP-40, 135 mM KCl, 15 mM NaCl, 1 mM DTT, 0.1 mg/mL BSA; 2 nM DNA or 3 nM RNA; recombinant protein; residues 38-121; label: FAM on one strand

With “GGUAUCAUGCGGAAACGCACCUCUACC [Loop B, P1/2(3bp)]” the Kd (Sox2-HMG (Homo sapiens) [1]) was 0.011 µM.

In the case of GGUCCAUGCGAAAGUAUGGACC [9 bp hairpin], the Kd [2] is reported as 0.054 µM.

For “GGUCCAUGCGGGCGAAAGUCUGUAUGGACC [13 bp hairpin]”, the Kd [2] was 0.083 µM.

In the case of GGUCCGAAAGGACC [5 bp hairpin], the Kd [2] is reported as 0.071 µM.

Sequence “GGUCGCCGUGGCCACUUCGAAAGGGGUGGAAAGGGCGACC [Loop A]” has a Kd (Sox2-HMG (Homo sapiens) [1]) of 0.011 µM.

“GGUCUUAAGGUGCGGGCGAAAGUCUGUACCUCUGGGACC [Loop B, Bulge(0+1)]”: binds (Sox2-HMG (Homo sapiens) [3]); binds more weakly [4]; binds more weakly [5]. For the same sequence, the binding result [6] was “binds more weakly”, the binding result [7] was “binds more weakly” and the Kd (Sox2-HMG (Homo sapiens) [1]) was 0.01 µM. “GGUCUUAAGGUGCGGGCGAAAGUCUGUACCUCUGGGACC [Loop B, Bulge(0+1)]”: binds more weakly [8]; binds more weakly [9]; binds more weakly [10]. “GGUCUUAAGGUGCGGGCGAAAGUCUGUACCUCUGGGACC [Loop B, Bulge(0+1)]”: binds more weakly [11]; binds more weakly [12].

With “GGUCUUAUCAUGCGAAAGUACCUCUGGGACC [Loop B, P2(3bp)]” the Kd (Sox2-HMG (Homo sapiens) [1]) was 0.012 µM.

With “GGUCUUAUCAUGCGCGAAAGUGUACCUCUGGGACC [Loop B, P2(5bp)]” the Kd (Sox2-HMG (Homo sapiens) [1]) was 0.01 µM.

“GGUCUUAUCAUGCGGGC / GCCCGCAUGAUAAGACC [Loop B fully paired RNA duplex]” gave a Kd [13] of 0.0535 µM.

For “GGUCUUAUCAUGCGGGCGAAAGUCUGUACCUCUGGGACC [Loop B]”, the Kd (Sox2-HMG (Homo sapiens) [1]) was 0.01 µM.

Work on “GGUCUUAUCGUGCGGGCGAAAGUCUGUACCUCUGGGACC [Loop B, Bulge(2+3)]” yielded a Kd (Sox2-HMG (Homo sapiens) [1]) of 0.014 µM.

“GGUCUUAUGGUGCGGGCGAAAGUCUGUACCUCUGGGACC [Loop B, Bulge(1+2)]” gave a Kd (Sox2-HMG (Homo sapiens) [1]) of 0.012 µM.

“GGUGAUGUUCGCCGUGGCCACUUAUCAUGCGGGCUCCUUUGGGAGGGUGCUCUUCUUUGUCUGUACCUCUGGGUGGAAAGGGCGAAUUC [ES2 267-354]” showed a Kd (Sox2-HMG (Homo sapiens) [1]) of 0.01 µM.

“GGUGGGCUCCUUUGGGAGGGUGCUCUUCUUUGUCUACC [Loop C]” gave a Kd (Sox2-HMG (Homo sapiens) [1]) of 0.011 µM.

For “GGUGUUAAAAGCAUAGUGGGAAAGUGACGUGUAAUUCGUCCACAUUACUUGAUGCGGUUAUAGUCCCAAUGCCACCUAACACAAAGUACGAGCAAGGAGACUC [env4 Cbl riboswitch]”, the Kd (Sox2-HMG (Homo sapiens) [1]) was 0.032 µM.

For some of these results: A weaker result is weaker than the reference pair of the same experiment. For some of these results: Construct, isoform or probe ends are uncertain for at least one entry. For some of these results: At least one verdict rests on a figure or table, not on a statement of the authors.
